Article PMC5691054, “An unexpected protein interaction promotes drug resistance in leukemia” (Nature Communications, 2017)
These are yes or no findings as the source states them, for the method shown. For part of these data: Binding calls can cover weak binding; strength is not graded here. For part of these data: Tags and fused reporters may be left off the sequences shown. For part of these data: In cells and extracts the contact can be indirect.

How the values were obtained:
[1] = biological target: GST-ABCC4-C100 (purified C terminus of ABCC4, 100 amino acids) (human); assay: pull-down; competition: TAT-ABCC4 peptides (1–4 μM) mixed with GST-ABCC4-C100 (50 nM) before addition of His-S-MPP1 (3.6 nM), 2 h at 24 °C; GST-ABCC4-C100 immobilized on glutathione beads, washed 3 times; immunoblot with rabbit anti-MPP1; both purified
[2] = biological target: ABCC4ΔC (ABCC4 lacking the PDZ motif), pAcGFP-tagged (human); assay: co-IP; cells co-transfected with MPP1 and GFP-ABCC4 or GFP-ABCC4ΔC; immunoprecipitation with GFP-TRAP; blot with anti-MPP1
[3] = biological target: ABCC4ΔC (ABCC4 lacking the PDZ motif), pAcGFP-tagged (human); assay: proximity ligation; HEK293 cells transfected with ABCC4 or ABCC4ΔC and MPP1, fixed and permeabilized; anti-ABCC4 and anti-MPP1 antibodies, Duolink kit

B1: His-S-MPP1 fusion protein (full-length MPP1) (protein, UniProt Q00013 1-466)
chain: MTLKASEGESGGSMHTALSDLYLEHLLQKRSRPEAVSHPLNTVTEDMYTNGSPAPGSPAQVKGQEVRKVRLIQFEKVTEEPMGITLKLNEKQSCTVARILHGGMIHRQGSLHVGDEILEINGTNVTNHSVDQLQKAMKETKGMISLKVIPNQQSRLPALQMFMRAQFDYDPKKDNLIPCKEAGLKFATGDIIQIINKDDSNWWQGRVEGSSKESAGLIPSPELQEWRVASMAQSAPSEAPSCSPFGKKKKYKDKYLAKHSSIFDQLDVVSYEEVVRLPAFKRKTLVLIGASGVGRSHIKNALLSQNPEKFVYPVPYTTRPPRKSEEDGKEYHFISTEEMTRNISANEFLEFGSYQGNMFGTKFETVHQIHKQNKIAILDIEPQTLKIVRTAELSPFIVFIAPTDQGTQTEALQQLQKDSEAIRSQYAHYFDLSLVNNGVDETLKKLQEAFDQACSSPQWVPVSWVY
binding [1]: binds

B2: MPP1 expressed from an expression vector in HEK293 cells (protein, UniProt Q00013 1-466)
chain: MTLKASEGESGGSMHTALSDLYLEHLLQKRSRPEAVSHPLNTVTEDMYTNGSPAPGSPAQVKGQEVRKVRLIQFEKVTEEPMGITLKLNEKQSCTVARILHGGMIHRQGSLHVGDEILEINGTNVTNHSVDQLQKAMKETKGMISLKVIPNQQSRLPALQMFMRAQFDYDPKKDNLIPCKEAGLKFATGDIIQIINKDDSNWWQGRVEGSSKESAGLIPSPELQEWRVASMAQSAPSEAPSCSPFGKKKKYKDKYLAKHSSIFDQLDVVSYEEVVRLPAFKRKTLVLIGASGVGRSHIKNALLSQNPEKFVYPVPYTTRPPRKSEEDGKEYHFISTEEMTRNISANEFLEFGSYQGNMFGTKFETVHQIHKQNKIAILDIEPQTLKIVRTAELSPFIVFIAPTDQGTQTEALQQLQKDSEAIRSQYAHYFDLSLVNNGVDETLKKLQEAFDQACSSPQWVPVSWVY
binding [2]: no binding | binding [3]: no binding
